PubChem BioAssay AID1671195 | Yale University – 2021

Purpose: 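Genes whose knockdown alters LDL uptake in liver cancer cells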 (primary screen)
Cell system: human Huh7 hepatoma cells
Reagent: siRNA pool against human genes, 18 nM
Duration: about 2 to 2.5 days of knockdown, then 8 h LDL uptake
Treatment: DiI-labelled LDL at 30 µg/ml for 8 h, in lipoprotein-deficient serum medium
Measured: 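Per-cell DiI-LDL intensity by automated imaging; well means scaled to the plate median and given as a robust z-score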
Direction: robust z-score: higher = more LDL uptake after knockdown
Hit rule: 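a gene counts as active if at least two replicate z-scores exceed ±2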
This is one part, drawn at random, of about 22,000 reagents tested. About 1,510 of them (6.9%) count as active. 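Active includes knockdowns raising or lowering LDL uptake; positive z-scores mean more uptake, negative mean less.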 Reagent sequences are not shown.

| gene | robust z-score, replicate 1 | robust z-score, replicate 2 | robust z-score, replicate 3 | outcome |
| --- | --- | --- | --- | --- |
| PDCD6IP (programmed cell death 6 interacting protein) | 0.908 | -0.53 | -0.0822 | inactive |
| LOC341306 (retired record) | 1.69 | 1.51 | 0.684 | inactive |
| LOC389683 (retired record) | -1.41 | -1.44 | -1.56 | inactive |
| FCF1 (FCF1 rRNA-processing protein) | 0.971 | 0.487 | 0.755 | inactive |
| ENY2 (ENY2 transcription and export complex 2 subunit) | 0.961 | 0.546 | -0.381 | inactive |
| PAPSS1 (3'-phosphoadenosine 5'-phosphosulfate synthase 1) | -0.448 | -1.18 | -0.346 | inactive |
| NUP210L (nucleoporin 210 like) | 4.03 | 1.31 | 4.38 | active |
| HACL2 (2-hydroxyacyl-CoA lyase 2) | -0.734 | 0.69 | -0.635 | inactive |
| LOC390020 (retired record) | -0.0588 | -0.218 | -0.49 | inactive |
| POP1 (POP1 ribonuclease P/MRP subunit) | -1.35 | 1.2 | 0.0574 | inactive |
| COL3A1 (collagen type III alpha 1 chain) | -0.372 | -1.64 | -1.15 | inactive |
| LOC441650 (retired record) | 0.605 | 0.0867 | 0.175 | inactive |
| NSD1 (nuclear receptor binding SET domain protein 1) | 0.2 | 0.937 | 0.0145 | inactive |
| ACOT2 (acyl-CoA thioesterase 2) | -0.647 | -1.3 | -0.293 | inactive |
| MMP7 (matrix metallopeptidase 7) | 1.31 | -0.58 | 0.106 | inactive |
| RADIL (Rap associating with DIL domain) | -1.15 | -1.78 | 2.29 | inactive |
| TENM3 (teneurin transmembrane protein 3) | 0.306 | 1.69 | -0.203 | inactive |

Targets above whose gene name starts with N or n:
| gene | robust z-score, replicate 1 | robust z-score, replicate 2 | robust z-score, replicate 3 | outcome |
| --- | --- | --- | --- | --- |
| NUP210L (nucleoporin 210 like) | 4.03 | 1.31 | 4.38 | active |
| NSD1 (nuclear receptor binding SET domain protein 1) | 0.2 | 0.937 | 0.0145 | inactive |

Additional entries:
| gene | robust z-score, replicate 1 | robust z-score, replicate 2 | robust z-score, replicate 3 | outcome |
| --- | --- | --- | --- | --- |
| SRP72 (signal recognition particle 72) | -0.549 | -0.317 | 0.0379 | inactive |
| UTP3 (UTP3 small subunit processome component) | -1.67 | -1.28 | -0.969 | inactive |
| HELLS (helicase, lymphoid specific) | 0.819 | -0.207 | -0.263 | inactive |
| LOC389239 (retired record) | 0.859 | 0.498 | 0.767 | inactive |
| COX11 (cytochrome c oxidase copper chaperone COX11) | 0.0209 | -0.204 | 0.552 | inactive |
| MTHFS (methenyltetrahydrofolate synthetase) | -1.63 | 0.173 | 0.104 | inactive |
| KLHL6 (kelch like family member 6) | -1.93 | -2.16 | -2.12 | active |
| SPOUT1 (SPOUT domain containing methyltransferase 1) | 2.84 | 1.01 | -0.935 | inactive |
| LINC00472 (long independently transcribed non-coding RNA 472) | -2.47 | -2.58 | -2.37 | active |
| TOGARAM1 (TOG array regulator of axonemal microtubules 1) | 0.549 | 3.58 | 1.05 | inactive |
| WRNIP1 (WRN helicase interacting protein 1) | 0.357 | -0.889 | 0.273 | inactive |
| TARS2 (threonyl-tRNA synthetase 2, mitochondrial) | -1.19 | -1.17 | -1.14 | inactive |
| PIEZO1-AS1 (PIEZO1 antisense RNA 1) | -0.85 | -0.699 | -0.645 | inactive |
| KCNA7 (potassium voltage-gated channel subfamily A member 7) | -1.18 | -0.245 | -1.62 | inactive |
| OR5K2 (olfactory receptor family 5 subfamily K member 2) | 0.708 | 0.27 | 1.19 | inactive |
| KANK1 (KN motif and ankyrin repeat domains 1) | 0.919 | -0.316 | 0.587 | inactive |
| SMIM1 (small integral membrane protein 1 (Vel blood group)) | -0.254 | -0.412 | -0.196 | inactive |
| FAM120A (family with sequence similarity 120 member A) | -0.655 | 2.08 | -1.1 | inactive |
| CHRND (cholinergic receptor nicotinic delta subunit) | 0.0447 | 0.923 | 0.509 | inactive |
| TBCCD1 (TBCC domain containing 1) | 1.31 | -0.572 | -0.156 | inactive |
| GPR31 (G protein-coupled receptor 31) | 1.53 | 0.22 | 1.08 | inactive |
| CSAG1 (chondrosarcoma associated gene 1) | 0.637 | -0.296 | 0.312 | inactive |
| FOXK2 (forkhead box K2) | -1.13 | -1.31 | -0.359 | inactive |
| FLJ46347 (retired record) | 0.378 | 0.32 | 0.461 | inactive |
| AFG3L1P (AFG3 like matrix AAA peptidase subunit 1, pseudogene) | -0.94 | -0.548 | -0.467 | inactive |
| CLPB (ClpB family mitochondrial disaggregase) | -1.1 | -1.25 | -0.654 | inactive |
| KLK9 (kallikrein related peptidase 9) | 0.146 | -0.295 | 0.0679 | inactive |
| LOC391105 (retired record) | -0.368 | -0.342 | -0.825 | inactive |
| PLK2 (polo like kinase 2) | 0.908 | 1.29 | 0.298 | inactive |
